Experimental data from PubChem BioAssay AID192 (DTP/NCI, 2004).
The list shows only some results of the screen, not a fair sample: it gathers some chemical classes. Not every dose and run of a compound is shown. T/C is the treated group as % of the vehicle group. Where survival is the endpoint, this PubChem deposit counts one and a half times the control or more as active, and values a quarter to a half above the control carry no call in these data; other NCI protocols may use other cut-offs. Schedules are NCI's codes, read here as Q, the interval in days (D) or hours (H), X, the number of doses. Some entries show no survivor count and are marked so; the dose need not have been tolerated.

Tested on: BDF1 mice, B16 melanoma ip, median survival T/C
Assay: NCI In Vivo Anticancer Drug Screen. Data for tumor model B16 Melanoma (intraperitoneal) in B6D2F1 (BDF1) mice
Details: T/C endpoint: median survival time, higher T/C = longer survival
Procedure: The antitumor activity of compounds was measured in mice bearing transplantable tumors. Survival or tumor size were measured and the results are expressed as the measurement made in the treated group (T) divided by the measurement made in the vehicle treated control group (C). The tumor model used in this assay is B16 Melanoma (intraperitoneal) in B6D2F1 (BDF1) mice

[1] = dose: 0.75 mg/kg/injection, schedule: Q04DX003 (ip), vehicle: other
[2] = dose: 1.5 mg/kg/injection, schedule: Q04DX003 (ip), vehicle: other
[3] = dose: 3.0 mg/kg/injection, schedule: Q04DX003 (ip), vehicle: other

In the case of CC(=O)OC[C@]12C[C@H](OC(=O)CC(C)C)C(C)=C[C@H]1OC1[C@H](O)[C@@H](OC(C)=O)[C@@]2(C)[C@@]12CO2, the T/C (dose: 0.12 mg/kg/injection, schedule: Q01DX009 (ip), vehicle: saline) is reported as 152 % of control [survivor count not shown], the T/C (dose: 0.25 mg/kg/injection, schedule: Q01DX009 (ip), vehicle: saline) is reported as 149 % of control [survivor count not shown] and the T/C (dose: 0.32 mg/kg/injection, schedule: Q01DX009 (ip), vehicle: Klucel (hydroxypropylcellulose) (HPC)) is reported as 128 % of control [survivor count not shown]. The T/C (dose: 0.38 mg/kg/injection, schedule: Q04DX003 (ip), vehicle: other) was 107 % of control [survivor count not shown], the T/C (dose: 0.5 mg/kg/injection, schedule: Q01DX009 (ip), vehicle: saline) was 150 % of control [survivor count not shown] and the T/C (dose: 0.63 mg/kg/injection, schedule: Q01DX009 (ip), vehicle: Klucel (hydroxypropylcellulose) (HPC)) was 148 % of control [survivor count not shown]. The T/C [1] was 111 % of control [survivor count not shown], the T/C (dose: 1.0 mg/kg/injection, schedule: Q01DX009 (ip), vehicle: saline) was 149 % of control [survivor count not shown] and the T/C (dose: 1.08 mg/kg/injection, schedule: Q04DX003 (ip), vehicle: saline + alcohol) was 114 % of control [survivor count not shown]. The T/C (dose: 1.25 mg/kg/injection, schedule: Q01DX009 (ip), vehicle: Klucel (hydroxypropylcellulose) (HPC)) was 141 % of control [survivor count not shown], the T/C [2] was 116 % of control [survivor count not shown] and the T/C (dose: 1.8 mg/kg/injection, schedule: Q04DX003 (ip), vehicle: saline + alcohol) was 116 % of control [survivor count not shown]. For the same compound, the T/C (dose: 2.0 mg/kg/injection, schedule: Q01DX009 (ip), vehicle: saline) was 156 % of control [survivor count not shown], the T/C [3] was 107 % of control [survivor count not shown] and the T/C (dose: 3.0 mg/kg/injection, schedule: Q04DX003 (ip), vehicle: saline + alcohol) was 116 % of control [survivor count not shown]. The T/C (dose: 648.0 micrograms/kg/injection, schedule: Q04DX003 (ip), vehicle: saline + alcohol) was 115 % of control [survivor count not shown], the T/C (dose: 648.0 micrograms/kg/injection, schedule: Q04DX003 (sc), vehicle: saline + alcohol) was 115 % of control [survivor count not shown] and the T/C (dose: 1080.0 micrograms/kg/injection, schedule: Q04DX003 (ip), vehicle: saline + alcohol) was 111 % of control [survivor count not shown]. The T/C (dose: 1080.0 micrograms/kg/injection, schedule: Q04DX003 (sc), vehicle: saline + alcohol) was 109 % of control [survivor count not shown], the T/C (dose: 1800.0 micrograms/kg/injection, schedule: Q04DX003 (ip), vehicle: saline + alcohol) was 103 % of control [survivor count not shown] and the T/C (dose: 1800.0 micrograms/kg/injection, schedule: Q04DX003 (sc), vehicle: saline + alcohol) was 114 % of control [survivor count not shown]. The T/C (dose: 3000.0 micrograms/kg/injection, schedule: Q04DX003 (ip), vehicle: saline + alcohol) was 110 % of control [survivor count not shown] and the T/C (dose: 3000.0 micrograms/kg/injection, schedule: Q04DX003 (sc), vehicle: saline + alcohol) was 129 % of control [survivor count not shown].

In the case of C[C@@H](O)[C@H]1/C=C/C=C\C(=O)O[C@@H]2C[C@H]3O[C@@H]4[C@@H]5OC5(C)CCC4(COC(=O)[C@H]4O[C@]4(C)[C@@H](O)CO1)[C@]2(C)[C@]31CO1 (some centres undefined), the T/C [1] is reported as 123 % of control [survivor count not shown], the T/C [2] is reported as 117 % of control [survivor count not shown] and the T/C (dose: 1.94 mg/kg/injection, schedule: Q04DX003 (ip), vehicle: saline + alcohol) is reported as 128 % of control [survivor count not shown]. The T/C (dose: 1.94 mg/kg/injection, schedule: Q04DX003 (sc), vehicle: other) was 115 % of control [survivor count not shown], the T/C [3] was 112 % of control [survivor count not shown] and the T/C (dose: 3.24 mg/kg/injection, schedule: Q04DX003 (ip), vehicle: other) was 124 % of control [survivor count not shown]. For the same compound, the T/C (dose: 3.24 mg/kg/injection, schedule: Q04DX003 (ip), vehicle: saline + alcohol) was 131 % of control [survivor count not shown], the T/C (dose: 3.24 mg/kg/injection, schedule: Q04DX003 (sc), vehicle: other) was 115 % of control [survivor count not shown] and the T/C (dose: 5.4 mg/kg/injection, schedule: Q04DX003 (ip), vehicle: other) was 115 % of control [survivor count not shown]. The T/C (dose: 5.4 mg/kg/injection, schedule: Q04DX003 (ip), vehicle: saline + alcohol) was 138 % of control [survivor count not shown] and the T/C (dose: 9.0 mg/kg/injection, schedule: Q04DX003 (sc), vehicle: other) was 106 % of control [survivor count not shown].
